In PubChem BioAssay AID200 (DTP/NCI, 2004):
The list shows only some results of the screen, not a fair sample: it is rich in T/C values a quarter to a half above the control, in often repeated tests (any T/C) and in doses without a T/C. Further doses and runs are listed elsewhere. T/C gives the treated animals as a percentage of the vehicle group. Some doses have a count of surviving animals in place of a T/C: the source files T/C as zero there, which appears to mark a toxic dose or a test without result, not a measured value. Some survivor counts are full or nearly so, which does not show that the dose was tolerated: survival well below the control is almost never listed, so the zero probably covers shortened survival too. Survivors were counted at the toxicity check, usually on the fifth day, unless a day is given; later deaths do not show. Schedule codes are those of the source, taken here to give the interval after Q, in days (D) or hours (H), and the number of doses after X. Brackets with × count equal records among those shown. Some entries hold several experiments; their values stand side by side, smallest first. For survival time, the PubChem record calls one and a half times the control and up active, and a quarter to a half above the control has no call in these data; cut-offs in other NCI protocols can differ. Some T/C values are followed by the survivors on the day toxicity was checked, most often the fifth; without a count, all were alive then.

Tested on: B6C3F1 mice, B16 melanoma ip, median survival T/C
Experiment: NCI In Vivo Anticancer Drug Screen. Data for tumor model B16 Melanoma (intraperitoneal) in B6C3F1 mice
Conditions: T/C endpoint: median survival time, schedule: Q01DX009 (ip), higher T/C = longer survival
Method in brief: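 Mice bearing transplanted tumor were dosed with compound or vehicle, and survival was recorded. Activity is expressed as the treated-group measurement (T) divided by the vehicle control measurement (C).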

[1] = dose: 12.5 mg/kg/injection, vehicle: saline with Tween-80
[2] = dose: 100.0 mg/kg/injection, vehicle: saline
[3] = dose: 100.0 mg/kg/injection, vehicle: saline with Tween-80
[4] = dose: 400.0 mg/kg/injection, vehicle: saline with Tween-80
[5] = dose: 200.0 mg/kg/injection, vehicle: saline
[6] = dose: 8.0 mg/kg/injection, vehicle: saline
[7] = dose: 32.0 mg/kg/injection, vehicle: saline
[8] = dose: 200.0 mg/kg/injection, vehicle: saline with Tween-80
[9] = dose: 50.0 mg/kg/injection, vehicle: saline
[10] = dose: 400.0 mg/kg/injection, vehicle: saline

## COc1cc2cc(c1Cl)N(C)C(=O)CC(OC(=O)C(C)C)C1(C)OC1C(C)C1CC(O)(NC(=O)O1)C(OC)/C=C/C=C(C)C2 (stereo not given)
dose: 6.2 micrograms/kg/injection, vehicle: saline + alcohol
  T/C: 134 % of control
dose: 12.5 micrograms/kg/injection, vehicle: saline + alcohol
  T/C: 140 % of control
dose: 25.0 micrograms/kg/injection, vehicle: saline + alcohol
  T/C: 140 % of control
dose: 50.0 micrograms/kg/injection, vehicle: saline + alcohol
  survivor count: 8 of 10
dose: 100.0 micrograms/kg/injection, vehicle: saline + alcohol
  survivor count: 3 of 10
dose: 200.0 micrograms/kg/injection, vehicle: saline + alcohol
  survivor count: 0 of 10

## ClCC[N+]12CC[N+](CCCl)(CC1)C2
dose: 200.0 mg/kg/injection, vehicle: water
  survivor count: 4 of 10

## Nc1ccc(C(OC(=O)c2cc3ccccc3c(Cc3c(O)c(C(=O)OC(c4ccc(N)cc4)(c4ccc(N)cc4)c4ccc(N)cc4)cc4ccccc34)c2O)(c2ccc(N)cc2)c2ccc(N)cc2)cc1
dose: 1.56 mg/kg/injection, vehicle: saline with Tween-80, evaluated on day 45
  T/C: 96 % of control
dose: 1.56 mg/kg/injection, vehicle: saline with Tween-80, evaluated on day 60
  T/C: 97 and 99 % of control
dose: 6.25 mg/kg/injection, vehicle: saline with Tween-80, evaluated on day 45
  T/C: 109 % of control
dose: 6.25 mg/kg/injection, vehicle: saline with Tween-80, evaluated on day 60
  T/C: 87 and 104 % of control
dose: 12.5 mg/kg/injection, vehicle: saline with Tween-80, evaluated on day 45
  T/C: 106 % of control
dose: 12.5 mg/kg/injection, vehicle: saline with Tween-80, evaluated on day 60
  T/C: 118 % of control
[1]
  survivor count: 9 of 10
dose: 25.0 mg/kg/injection, vehicle: saline with Tween-80
  survivor count: 5 of 10, 6 of 10, 10 of 10
dose: 50.0 mg/kg/injection, vehicle: saline with Tween-80
  survivor count: 3 of 10

## CC(C)CC(NC(=O)C(F)(F)F)C(=O)O (stereo not given)
[2]
  survivor count: 10 of 10

## COC(=O)C(F)C(Br)C(=O)OC (stereo not given)
[3]
  survivor count: 4 of 10

## O=C(CCl)NC(Cc1ccccc1)C(=O)O (stereo not given)
[4]
  survivor count: 9 of 10

## S=c1c2[nH]cnc2ncn1CCSC1=NC=NC2=NC=NC21 (stereo not given)
[2]
  survivor count: 9 of 10
[5]
  survivor count: 9 of 10

## CCOC(=O)C(CC(C)C)NC(=O)C(Cc1ccc(N(CCCl)CCCl)cc1)NC(C)=O (stereo not given)
dose: 16.0 mg/kg/injection, vehicle: saline with Tween-80
  T/C: 125 % of control
dose: 32.0 mg/kg/injection, vehicle: saline with Tween-80
  T/C: 125 and 137 % of control
dose: 64.0 mg/kg/injection, vehicle: saline with Tween-80
  survivor count: 9 of 10
dose: 128.0 mg/kg/injection, vehicle: saline with Tween-80
  survivor count: 3 of 10 and 6 of 10

## CCN(CC)CCCC(C)Nc1c2ccc(Cl)cc2nc2ccc(OC)cc12 (stereo not given)
dose: 60.0 mg/kg/injection, vehicle: Klucel (hydroxypropylcellulose) (HPC)
  T/C: 138 % of control
dose: 120.0 mg/kg/injection, vehicle: Klucel (hydroxypropylcellulose) (HPC)
  survivor count: 8 of 10

## [Cl][Mn][Cl]
dose: 1.0 mg/kg/injection, vehicle: saline
  T/C: 129 % of control
[6]
  T/C: 128 % of control
dose: 16.0 mg/kg/injection, vehicle: saline
  T/C: 130 and 142 % of control
[7]
  T/C: 129 and 136 % of control
dose: 64.0 mg/kg/injection, vehicle: saline
  T/C: 145 % of control [9 of 10 alive]
dose: 128.0 mg/kg/injection, vehicle: saline
  survivor count: 0 of 10 and 1 of 10

## O=C(Nc1ccc([N+](=O)[O-])cc1)Nc1nccs1
dose: 25.0 mg/kg/injection, vehicle: distilled water + Tween-80
  T/C: 141 % of control
dose: 100.0 mg/kg/injection, vehicle: distilled water + Tween-80
  survivor count: 6 of 10
dose: 200.0 mg/kg/injection, vehicle: distilled water + Tween-80
  survivor count: 0 of 10

## c1ccc2sc(SSN3CC4CCC(CC4)C3)nc2c1
[3]
  survivor count: 10 of 10
[8]
  survivor count: 9 of 10
[4]
  survivor count: 10 of 10

## CC1=C(C)C(=O)O[C@@H]([C@](C)(O)[C@]2(O)CC[C@@]3(O)[C@@H]4C[C@H]5O[C@]56[C@@H](O)C=CC(=O)[C@]6(C)[C@H]4CC[C@]23C)C1
dose: 2.0 mg/kg/injection, vehicle: saline + alcohol
  T/C: 146 % of control
dose: 2.0 mg/kg/injection, vehicle: saline
  T/C: 126 % of control
dose: 2.0 mg/kg/injection, vehicle: suspension in saline
  T/C: 130 % of control
dose: 4.0 mg/kg/injection, vehicle: saline
  T/C: 133 and 139 % of control
dose: 4.0 mg/kg/injection, vehicle: suspension in saline
  T/C: 142 % of control
dose: 8.0 mg/kg/injection, vehicle: saline + alcohol
  T/C: 140 % of control
[6]
  T/C: 134 and 147 % of control
dose: 8.0 mg/kg/injection, vehicle: suspension in saline
  T/C: 143 % of control
dose: 16.0 mg/kg/injection, vehicle: saline + alcohol
  T/C: 134 % of control
dose: 32.0 mg/kg/injection, vehicle: saline + alcohol
  survivor count: 3 of 10
[7]
  T/C: 132 % of control
  survivor count: 9 of 10
dose: 32.0 mg/kg/injection, vehicle: suspension in saline
  survivor count: 9 of 10
dose: 64.0 mg/kg/injection, vehicle: suspension in saline
  survivor count: 0 of 10

## CC(C)C(NC(=O)OCC1c2ccccc2-c2ccccc21)C(=O)O (stereo not given)
dose: 400.0 mg/kg/injection, vehicle: Klucel (hydroxypropylcellulose) (HPC)
  survivor count: 5 of 10

## CN(CO)c1nc(N(C)CO)nc(N(C)CO)n1
dose: 25.0 mg/kg/injection, vehicle: saline
  T/C: 131 % of control
[9]
  T/C: 134 and 139 % of control
[5]
  survivor count: 10 of 10 (2×)
[10]
  survivor count: 5 of 10

## O=C(Nc1cccnc1)c1ccc([N+](=O)[O-])s1
dose: 3.13 mg/kg/injection, vehicle: saline
  T/C: 128 % of control
[9]
  survivor count: 10 of 10
[2]
  survivor count: 10 of 10
[5]
  survivor count: 10 of 10
[10]
  survivor count: 10 of 10

## CCSC(=O)N1c2ccc(OC)cc2C=CC1C#N (stereo not given)
[8]
  T/C: 141 % of control
[4]
  T/C: 139 % of control
  survivor count: 10 of 10
dose: 800.0 mg/kg/injection, vehicle: saline with Tween-80
  survivor count: 7 of 10 and 10 of 10

## CCCCc1ccc2nc(NC(=O)OC)[nH]c2c1
dose: 6.25 mg/kg/injection, vehicle: saline with Tween-80
  T/C: 133 % of control
[1]
  T/C: 146 % of control
[8]
  survivor count: 9 of 10
